Measured values from the supplement of paper PMC9233669.
Variants at the background level are over-represented here.

What was measured:
biotinyl-Trp-oxazolone = assay: self-aminoacylation, catalytic enhancement (BWO) (fold over background); higher = more active; k-Seq, kA / k0A0; sequences stand for … in GGGAAUGGAUCCACAUCUACGAAUUC…UUCACUGCAGACUUGACGAAGCUG
Method in brief: (§1)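 The uncatalyzed rate is the low-activity peak of a bimodal Gaussian fit, and catalytic enhancement is median kA divided by it. The kA values came from pseudo-first-order fits, with 1000 bootstraps, of per-sequence fraction reacted measured by streptavidin capture, triplicate qPCR and Illumina sequencing. Mutagenized RNA pools with a 21-nt variable region (0.43 μM) were reacted with each biotinyl-aminoacyl-oxazolone at 2–1250 μM in 50 μL HEPES/NaCl/KCl/MgCl2/CaCl2 buffer with 5% acetonitrile, pH 6.9–7.0, for 90 minutes at room temperature.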

biotinyl-Leu-oxazolone = assay: self-aminoacylation, catalytic enhancement (BLO) (fold over background); higher = more active; k-Seq, kA / k0A0; sequences stand for … in GGGAAUGGAUCCACAUCUACGAAUUC…UUCACUGCAGACUUGACGAAGCUG
Method in brief: as §1

biotinyl-Val-oxazolone = assay: self-aminoacylation, catalytic enhancement (BVO) (fold over background); higher = more active; k-Seq, kA / k0A0; sequences stand for … in GGGAAUGGAUCCACAUCUACGAAUUC…UUCACUGCAGACUUGACGAAGCUG
Method in brief: as §1

biotinyl-Ile-oxazolone = assay: self-aminoacylation, catalytic enhancement (BIO) (fold over background); higher = more active; k-Seq, kA / k0A0; sequences stand for … in GGGAAUGGAUCCACAUCUACGAAUUC…UUCACUGCAGACUUGACGAAGCUG
Method in brief: as §1

biotinyl-Met-oxazolone = assay: self-aminoacylation, catalytic enhancement (BMO) (fold over background); higher = more active; k-Seq, kA / k0A0; sequences stand for … in GGGAAUGGAUCCACAUCUACGAAUUC…UUCACUGCAGACUUGACGAAGCUG
Method in brief: as §1

biotinyl-Phe-oxazolone = assay: self-aminoacylation, catalytic enhancement (BFO) (fold over background); higher = more active; k-Seq, kA / k0A0; sequences stand for … in GGGAAUGGAUCCACAUCUACGAAUUC…UUCACUGCAGACUUGACGAAGCUG
Method in brief: as §1

| Sequence | self-aminoacylation (biotinyl-Trp-oxazolone) | self-aminoacylation (biotinyl-Leu-oxazolone) | self-aminoacylation (biotinyl-Val-oxazolone) | self-aminoacylation (biotinyl-Ile-oxazolone) | self-aminoacylation (biotinyl-Met-oxazolone) | self-aminoacylation (biotinyl-Phe-oxazolone) |
| --- | --- | --- | --- | --- | --- | --- |
| CCACGCUUCAAGCUAUCGGUC [Fam1B.1 aminoacylation ribozyme variant] | 0.819 | 0.687 | 0.91 | 0.755 | 0.549 | 0.707 |
| CUACUUCAAACAAUAGAUCUG [Fam1A.1 aminoacylation ribozyme variant] | 0.476 | 0.6 | 0.643 | 0.738 | 0.826 | 0.847 |
| AUUACCUUGGUCAUAGAGUGA [Fam2.1 aminoacylation ribozyme variant] | 9.04 | 7.24 | 3.69 | 3.58 | 6.82 | 25.4 |
| CGAUACUUCAAGCAAUCGGUC [Fam1B.1 aminoacylation ribozyme variant] | 1.55 | 0.997 | 1.1 | 1.22 | 1.31 | 1.88 |
| CCACACUUCAAGCAAGCGUUC [Fam1B.1 aminoacylation ribozyme variant] | 0.492 | 0.516 | 0.728 | 0.689 | 0.454 | 0.905 |
| AAGUUUGCUAAUAUUCGGAAG [Fam3.1 aminoacylation ribozyme variant] | 1.65 | 1.03 | 0.703 | 1.04 | 1.27 | 1.16 |
| AUUACCCUGUUCAUCGAGAGA [Fam2.1 aminoacylation ribozyme variant] | 0.607 | 0.99 | 1.23 | 1.28 | 1.08 | 1.07 |
| AUUACCCUGGUCAUCGAGUCG [Fam2.1 aminoacylation ribozyme variant] | 0.725 | 0.794 | 0.976 | 0.765 | 0.797 | 0.759 |
| CCACACUUCAAGCAAUCGUCC [Fam1B.1 aminoacylation ribozyme variant] | 1.06 | 0.518 | 0.652 | 0.54 | 0.412 | 1.57 |
| AAGUUUGCUAAUCGUCGCAAC [Fam3.1 aminoacylation ribozyme variant] | 0.905 | 1.26 | 1 | 1.09 | 1.71 | 0.977 |
| AAGUUUGCUAAUAGGCGCAAG [Fam3.1 aminoacylation ribozyme variant] | 0.641 | 0.558 | 0.634 | 0.608 | 0.59 | 0.866 |
| CUACUUCAAACGAUCGAUCUG [Fam1A.1 aminoacylation ribozyme variant] | 0.354 | 0.485 | 0.584 | 0.55 | 0.47 | 0.425 |
| AAGUUUGCUAAUAGACGCAAA [Fam3.1 aminoacylation ribozyme variant] | 0.532 | 1.03 | 0.892 | 0.973 | 1.14 | 1.11 |
| CCGCACUUGAAGCAAUCGGUC [Fam1B.1 aminoacylation ribozyme variant] | 1.29 | 1.23 | 1.61 | 1.29 | 0.942 | 1.18 |
| AUUACCCUGGUCAUCUAGUGA [Fam2.1 aminoacylation ribozyme variant] | 11.3 | 9.15 | 4.83 | 4.51 | 9.61 | 42.9 |
| CUACUUCAAACAACAGGUCUG [Fam1A.1 aminoacylation ribozyme variant] | 0.41 | 0.512 | 0.74 | 0.632 | 0.551 | 0.54 |
| AUUACCCUGGCCAUAGAGUGA [Fam2.1 aminoacylation ribozyme variant] | 6.32 | 4.73 | 2.51 | 2.6 | 4.15 | 5.34 |
| AUUACCCUGAUCACCGAGUGA [Fam2.1 aminoacylation ribozyme variant] | 6.75 | 7.42 | 3.74 | 3.08 | 7.33 | 42.1 |
| CUACUUCUAAAAAUCGGUCUG [Fam1A.1 aminoacylation ribozyme variant] | 0.523 | 0.657 | 0.694 | 0.669 | 0.738 | 0.482 |
| CUACUUAUAACAAUCGGUCUG [Fam1A.1 aminoacylation ribozyme variant] | 0.723 | 0.856 | 0.877 | 0.807 | 0.783 | 0.809 |
| AUUCACAUAUGUCAUCGGGUG [Fam2.2 aminoacylation ribozyme variant] | 7.3 | 9.08 | 4.21 | 4.44 | 7.09 | 52.5 |
| CUACUUCAAACAAUCGGUGUU [Fam1A.1 aminoacylation ribozyme variant] | 1.56 | 1.84 | 1.38 | 1.23 | 1.59 | 1.88 |
| CCACACUUCACGCAAUCGGAC [Fam1B.1 aminoacylation ribozyme variant] | 1.24 | 1.07 | 1.17 | 1.07 | 1.15 | 0.401 |
| AAGGUUGCUAAUAGUCCCAAG [Fam3.1 aminoacylation ribozyme variant] | 1.4 | 0.775 | 1.44 | 1.15 | 0.856 | 2.86 |
| AUUACCCUGGUCACCGAGAGA [Fam2.1 aminoacylation ribozyme variant] | 0.85 | 0.663 | 0.905 | 1.06 | 1.1 | 0.956 |
| CUACUUCCAACAAUCGGUCCG [Fam1A.1 aminoacylation ribozyme variant] | 0.8 | 0.839 | 0.773 | 0.836 | 0.865 | 1.43 |

| Sequence | self-aminoacylation (biotinyl-Trp-oxazolone) | self-aminoacylation (biotinyl-Leu-oxazolone) | self-aminoacylation (biotinyl-Val-oxazolone) | self-aminoacylation (biotinyl-Ile-oxazolone) | self-aminoacylation (biotinyl-Met-oxazolone) | self-aminoacylation (biotinyl-Phe-oxazolone) |
| --- | --- | --- | --- | --- | --- | --- |
| CUACUUCAAACAAGCGGUGUG [Fam1A.1 aminoacylation ribozyme variant] | 0.446 | 1.14 | 1.07 | 1.15 | 0.909 | 0.943 |
| CUACUUCAUACAAUCGGUCAG [Fam1A.1 aminoacylation ribozyme variant] | 0.721 | 0.662 | 0.699 | 0.738 | 0.644 | 0.985 |
| CCAAACUUCACGCAAUCGGUC [Fam1B.1 aminoacylation ribozyme variant] | 1.08 | 1.49 | 1.74 | 1.41 | 1.39 | 0.813 |
| AUUUCCCUGGUCAUAGAGUGA [Fam2.1 aminoacylation ribozyme variant] | 12.2 | 9.78 | 4.88 | 4.67 | 9.7 | 61.5 |
| CUACUUAAAACGAUCGGUCUG [Fam1A.1 aminoacylation ribozyme variant] | 0.57 | 0.775 | 0.868 | 0.935 | 1.04 | 0.67 |
| AAGUUUGCUAAUAGUUUCAAG [Fam3.1 aminoacylation ribozyme variant] | 1.24 | 1.18 | 1.15 | 1.25 | 1.25 | 1.17 |
| UCACACUUCAAGCAAGCGGUC [Fam1B.1 aminoacylation ribozyme variant] | 0.746 | 0.991 | 1.06 | 0.965 | 1.02 | 0.807 |
| CCACACUACAAGCAAUCCGUC [Fam1B.1 aminoacylation ribozyme variant] | 0.521 | 0.903 | 0.96 | 1.15 | 0.803 | 0.81 |
| CUACUGCAAACCAUCGGUCUG [Fam1A.1 aminoacylation ribozyme variant] | 0.718 | 0.574 | 1.09 | 0.93 | 0.798 | 1.23 |
| AUUACCCUGGUCGUCUAGUGA [Fam2.1 aminoacylation ribozyme variant] | 0.905 | 1.53 | 1.04 | 1.15 | 1.37 | 2.09 |
| CCACUCUUCAAGCGAUCGGUC [Fam1B.1 aminoacylation ribozyme variant] | 1.57 | 0.926 | 1.24 | 1.25 | 1.18 | 1.33 |
| CCACACUUAAAGCAAUCGUUC [Fam1B.1 aminoacylation ribozyme variant] | 0.471 | 0.518 | 0.797 | 0.718 | 0.499 | 0.683 |
| CUACUUCAAAUAUUCGGUCUG [Fam1A.1 aminoacylation ribozyme variant] | 1.26 | 1.12 | 1.26 | 1.19 | 1.3 | 0.861 |
| AAGUUUGCUAAUAGUCUCCAG [Fam3.1 aminoacylation ribozyme variant] | 1.02 | 0.909 | 0.947 | 1.1 | 0.855 | 1.59 |
| CCACACCUCAAGAAAUCGGUC [Fam1B.1 aminoacylation ribozyme variant] | 1.29 | 1.19 | 1.03 | 1.03 | 0.899 | 1.7 |
| AAGUUUGUUAAUAGUAGCAAG [Fam3.1 aminoacylation ribozyme variant] | 1.09 | 0.766 | 1.01 | 0.903 | 1.03 | 1.18 |
| AAGUUUGCUAAUAGUCGCCCG [Fam3.1 aminoacylation ribozyme variant] | 3.76 | 3.87 | 2.69 | 3.76 | 2.98 | 9.34 |
| AUUACCCUGGGCAUCGAGGGA [Fam2.1 aminoacylation ribozyme variant] | 1.54 | 1.72 | 1.51 | 1.26 | 1.53 | 0.92 |
| AAGUGUGCUAAUAGUCCCAAG [Fam3.1 aminoacylation ribozyme variant] | 2.02 | 1.24 | 1.28 | 1.34 | 1.17 | 3.77 |
| AUUCACCUGGGUCGUCGGGUG [Fam2.2 aminoacylation ribozyme variant] | 2.11 | 2.3 | 2.48 | 1.93 | 2.46 | 6.66 |
| CUUCACCUAUGUCAUCGGGUG [Fam2.2 aminoacylation ribozyme variant] | 4.46 | 4.68 | 2.83 | 2.35 | 3.64 | 17 |
| AAGUUUGCUAAUAUUCGCUAG [Fam3.1 aminoacylation ribozyme variant] | 0.876 | 1.12 | 1.06 | 1.35 | 0.987 | 0.695 |
| AUUACCCUGGUCAGCGAGUUA [Fam2.1 aminoacylation ribozyme variant] | 1.09 | 1.14 | 1.21 | 1.14 | 0.988 | 0.968 |
| AUUUCCCUGCUCAUCGAGUGA [Fam2.1 aminoacylation ribozyme variant] | 1.15 | 1.6 | 1.46 | 1.47 | 1.74 | 1.67 |
| CCACACUACAAUCAAUCGGUC [Fam1B.1 aminoacylation ribozyme variant] | 0.811 | 0.688 | 0.877 | 0.797 | 0.663 | 1.18 |
